The results in this text go back to patent US20070003534A1.

B1: SEQ ID NO 119 (protein)
chain: HSQALITTDRLKDAIFKERHCKAQLEIIVHRLQNEVKKLTIELMKARDQQED
B2: SEQ ID NO 117 (protein)
chain: ETKNALNVVKNDLIAKVDQLSGEQEVLKGELEAAKQAKVKLENRIKELEKELKRVKSEAVTARREPREEVD
B3: SEQ ID NO 115 (protein)
chain: QKRVDALNDEIRQLQQENRQLLNERIKLEGIITRVETYLNENLRKRLDQVEQELNELRETEGGTVLTATTSEK
B4: SEQ ID NO 47 (protein)
chain: WKGMLSRLQELRKEEETLLRLKAALHDQLNRLKVEELALQSMINSRGRTETLSSQPAPEQLCDMSLHVDNEVTINQTTL
B5: SEQ ID NO 48 (protein)
chain: B4 chain with T17A
B6: SEQ ID NO 35 (protein)
chain: RKWKGMLSRLQELRKEEETLLRLKAALHDQLNRLKVEELALQSMINSRGRTETLSSQPAPEQLCDMSLHVDNEVTINQTTP
B7: SEQ ID NO 36 (protein)
chain: B6 chain with R9Q
B8: SEQ ID NO 38 (protein)
chain: B6 chain with K24N
B9: SEQ ID NO 41 (protein)
chain: B6 chain with T80K, P81L
B10: SEQ ID NO 44 (protein)
chain: B6 chain with K4E, T80R
B11: SEQ ID NO 39 (protein)
chain: B6 chain with T51A
B12: SEQ ID NO 40 (protein)
chain: B6 chain with A59T, P81T
B13: SEQ ID NO 43 (protein)
chain: B6 chain with T80R
B14: SEQ ID NO 42 (protein)
chain: B6 chain with P81Q
B15: SEQ ID NO 110 (protein)
chain: LLQLKLRASMSTKCNLENQIKKLEDDRSSLQTAKAGLEDECKTLRQKVEILNELYLQT
B16: SEQ ID NO 96 (protein)
chain: ELIVRITSLEVENQNLRGVVQDLQQAISKLEARLSSLEKSSPTPRATAPQTQHVSPMRQVEPPTKKGATPAEV

Positions count from the first letter of the chain named. Results are given in words; binding and its absence hold for the method and conditions named. Some results given as binding are weak or reduced against the parent protein; the word gives no strength.

In one assay the target is bait c-Jun protein from the pCMV-cJun(502-957)CBPzz vector. The assay can be described thus: IVV cotranslation selection, bait c-Jun.
Turning to B1, the binding result is “binds”.
As to KGMLSRLQELRKEEETLLRLKAALHDQLNRLKVKELALQSMINSRGR [SEQ ID NO 49], the binding result is listed as “binds”.
With B2, the binding entry is given as “binds”.
As to B3, the binding entry is given as “binds”.
Consider B4, for which the binding entry is “binds”.
On the same count and under the same terms, with B5 the entry was “binds”.
For B6, the binding result is “binds”.
On the same count and under the same terms, with B7 the entry was “binds”.
As to B8, the binding entry was “binds”.
Turning to B9, the binding entry is given as “binds”.
On to B10, for which the binding result is on record as “binds”.
For the molecule B11, the binding entry is reported as “binds”.
The same measure, in the same setting: in the case of B12 it was “binds”; in that of B13, “binds”.
For B14, the binding entry is reported as “binds”.
Consider B15, for which the binding entry is on record as “binds”.
Still for that read-out and setting: with B16 the entry was “binds”.

For a further assay the target is unchanged. The assay can be described thus: pull-down on IgG agarose, C-terminal labeled prey, bait c-Jun.
As to B1, the binding result is “binds”.
In the case of B2, the binding result is given as “binds”.
On to B3, for which the binding result is given as “binds”.
Still for that read-out and setting: in the case of B15 it was “binds”.
As for B16, the binding entry is “binds”.

A further assay shares this target. The assay can be described thus: pull-down on IgG agarose, C-terminal labeled prey, with and without bait c-Jun, SDS-PAGE fluorescence.
Turning to B1, the binding result was “binds”.
Turning to B2, the binding entry is given as “binds”.
In the case of B3, the binding entry was “binds”.
B15: the binding result is listed as “binds”.
